PubChem BioAssay AID602196 – INSERM – 2012
The whole screen tested about 23,000 reagents; shown is an unselected part. 455 of them (2%) were called active. 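Active includes both protection and sensitisation; some change values fall well beyond the stated -50 to +50 range.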 Unmarked entries are inactive. Not all columns of the deposit are shown. No sequences are given here. Not given: the amount of reagent.

Screen: 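Modifiers of cisplatin sensitivity in A549 cells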
System: human A549 lung cancer cells
Reagents: siRNA pair against human genes
Duration: 48 h transfection before cisplatin; time from cisplatin to read-out not stated
Challenge: cisplatin at a dose killing half of control-siRNA cells; exact dose and duration not given
Measured: 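Cisplatin cell death as a shift from the 50% death seen with control siRNA; siRNAs toxic or growth-blocking alone scored 0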
Scale: two-siRNA summed score (-2 to +2): higher = both siRNAs protect from cisplatin killing; -2 means both sensitise
Active means: 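siRNAs harmful alone (LDH or WST-1) get 0; others get +1 for less and -1 for more cisplatin killing; genes are active when the two siRNAs give the same sign, summing to ±2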
Meaning of the calls: active = both siRNAs shift cisplatin killing the same way; inactive = no consistent shift, or siRNA harmful alone

HBM (hemoglobin subunit mu) — two-siRNA summed score (-2 to +2): 0
PRR15L (proline rich 15 like) — two-siRNA summed score (-2 to +2): 1
LGALS14 (galectin 14) — two-siRNA summed score (-2 to +2): 0
TGFB1 (transforming growth factor beta 1) — two-siRNA summed score (-2 to +2): 0
AKNAD1 (AKNA domain containing 1) — two-siRNA summed score (-2 to +2): 0
TBPL1 (TATA-box binding protein like 1) — two-siRNA summed score (-2 to +2): 1
CMAS (cytidine monophosphate N-acetylneuraminic acid synthetase) — two-siRNA summed score (-2 to +2): -1
ACYP2 (acylphosphatase 2) — two-siRNA summed score (-2 to +2): 0
CTSG (cathepsin G) — two-siRNA summed score (-2 to +2): 0
ANXA2R-AS1 (ANXA2R antisense RNA 1) — two-siRNA summed score (-2 to +2): -1
SIGIRR (single Ig and TIR domain containing) — two-siRNA summed score (-2 to +2): -1
ZCCHC14 (zinc finger CCHC-type containing 14) — two-siRNA summed score (-2 to +2): 1
RFX6 (regulatory factor X6) — two-siRNA summed score (-2 to +2): 1
CC2D2B (coiled-coil and C2 domain containing 2B) — two-siRNA summed score (-2 to +2): 0
LOC441533 — two-siRNA summed score (-2 to +2): 0
TBX4 (T-box transcription factor 4) — two-siRNA summed score (-2 to +2): 1
BABAM2 (BRISC and BRCA1 A complex member 2) — two-siRNA summed score (-2 to +2): 0
SPATA9 (spermatogenesis associated 9) — two-siRNA summed score (-2 to +2): 1
CHRNA1 (cholinergic receptor nicotinic alpha 1 subunit) — two-siRNA summed score (-2 to +2): -1
PIH1D2 (PIH1 domain containing 2) — two-siRNA summed score (-2 to +2): 0
LOC440229 — two-siRNA summed score (-2 to +2): 0
PRELID1 (PRELI domain containing 1) — two-siRNA summed score (-2 to +2): 0
PCDHGC3 (protocadherin gamma subfamily C, 3) — two-siRNA summed score (-2 to +2): 0
SFXN2 (sideroflexin 2) — two-siRNA summed score (-2 to +2): 0
NEU4 (neuraminidase 4) — two-siRNA summed score (-2 to +2): 1
MGAM (maltase-glucoamylase) — two-siRNA summed score (-2 to +2): 0
CROCC (ciliary rootlet coiled-coil, rootletin) — two-siRNA summed score (-2 to +2): 0
ZNF93 (zinc finger protein 93) — two-siRNA summed score (-2 to +2): 0
GRHL1 (grainyhead like transcription factor 1) — two-siRNA summed score (-2 to +2): -1
RHBDF2 (rhomboid 5 homolog 2) — two-siRNA summed score (-2 to +2): 0
VNN2 (vanin 2) — two-siRNA summed score (-2 to +2): 0

2 consecutive records already listed, for reference:
PRR15L (proline rich 15 like) — two-siRNA summed score (-2 to +2): 1
LGALS14 (galectin 14) — two-siRNA summed score (-2 to +2): 0
